PubChem BioAssay AID493246, Drosophila RNAi Screening Center, 2011
In all, the deposit lists about 21,000 reagents; below is an unselected part of those that have a named target and a result. In the full data, 429 (2%) were called active. 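Values are raw and not normalised between plates; calls rest on per-plate z-scores that were not deposited.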 Unmarked entries are inactive. Names joined by + are all predicted targets of the reagent. No sequences are given here. Not stated in the record: the amount of reagent, the time to read-out.

Assay: 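Genes fly cells need to grow and stay alive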 (primary screen)
Cells: Drosophila Kc and S2R+ cells
Reagent: long dsRNA against Drosophila genes
Read-out: 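Cell number per well after knock-down, printed as raw plate values; calls were based on per-plate z-scores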
Scale: Kc cell number and S2R+ cell number: higher = more cells remaining
Rule for the call: 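Counted as a hit if cell number falls by a z-score of at least 3 within its plate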

Gene	amplicon	Kc cell number, rep 1	Kc cell number, rep 2	S2R+ cell number, rep 1	S2R+ cell number, rep 2
sens	DRSC09263	8.95e5 (active)	7.37e5	4.55e5	6.48e5
Ntf-2r	DRSC02019	1.63e6	1.54e6	1.30e6	1.53e6
CG6330	DRSC16022	5.27e5		8.26e5	
fs(1)M3	DRSC18381	5.64e5		8.85e5	
slpr	DRSC18225	5.50e5		8.45e5	
CG32243	DRSC08105	1.77e6	1.63e6	1.07e6	1.24e6
Reg-2	DRSC08690	1.26e6	1.37e6	1.08e6	1.04e6
dUTPase	DRSC01998	1.46e6	1.47e6	1.08e6	1.11e6
CG7910	DRSC16341	1.55e6	1.65e6	1.35e6	1.50e6
CG6048	DRSC18398	1.47e6	1.46e6	1.04e6	1.15e6
CG15734	DRSC19701	1.60e6	1.49e6	1.09e6	1.20e6
rho-5	DRSC02847	1.55e6	1.64e6	1.30e6	1.41e6
CG6700	DRSC02980	1.30e6	1.38e6	1.14e6	1.16e6
CG31055	DRSC13832	1.04e6	1.41e6	1.04e6	1.05e6
Cyp304a1	DRSC16623	1.49e6	1.44e6	8.11e5	1.01e6
AANATL6	DRSC06773	1.56e6	1.55e6	1.14e6	1.18e6
Him	DRSC19638	1.45e6	1.43e6	1.06e6	1.13e6
CG8646	DRSC07230	1.61e6	1.63e6	1.27e6	1.42e6
CG13295	DRSC09969	1.64e6	1.68e6	1.20e6	1.30e6
pre-mod(mdg4)-Z + mod(mdg4) + pre-mod(mdg4)-T	DRSC13477	1.40e6	1.43e6	1.03e6	1.16e6
pre-mod(mdg4)-Z + mod(mdg4) + pre-mod(mdg4)-T	DRSC17001	1.49e6	1.40e6	1.06e6	1.16e6
FASN2	DRSC00167	1.61e6	1.62e6	1.14e6	1.30e6
FASN2	DRSC00610	1.37e6	1.35e6	1.05e6	1.16e6
CG32628 (retired record)	DRSC19405	1.78e6	1.56e6	1.11e6	1.27e6
CG4949	DRSC19926	1.73e6	1.77e6	1.03e6	1.17e6
not	DRSC11378	1.35e6	1.39e6	1.28e6	1.36e6
L (retired record)	DRSC05966	1.49e6	1.46e6	1.15e6	1.18e6
L (retired record)	DRSC05967	1.49e6	1.48e6	9.63e5	9.75e5
CG8159	DRSC16392	1.38e6	1.48e6	1.25e6	1.34e6
CG7953	DRSC01902	1.30e6	1.36e6	1.26e6	1.29e6
zuc	DRSC02160	1.41e6	1.50e6	1.29e6	1.26e6
Jon25Biii	DRSC03115	1.59e6	1.48e6	1.12e6	1.29e6
CG13616	DRSC14619	1.60e6	1.69e6	1.04e6	1.17e6
dmGlut	DRSC02835	1.02e6	1.06e6	1.01e6	1.06e6
RpL37A	DRSC02899	1.27e6	1.36e6	8.13e5	1.00e6
Spec2 (retired record)	DRSC12258	1.43e6	1.52e6	1.23e6	1.35e6
Vps37B	DRSC12165	1.59e6	1.73e6	1.10e6	1.23e6
Vm26Ac	DRSC02329	1.64e6	1.74e6	1.10e6	1.27e6
GstD4	DRSC16685	1.45e6	1.42e6	1.26e6	1.43e6
CG17085 (retired record)	DRSC02565	1.75e6	1.78e6	1.14e6	1.31e6
CG17085 (retired record)	DRSC02566	1.60e6	1.68e6	1.14e6	1.25e6
flr	DRSC09787	1.26e6	1.32e6	1.37e6	1.06e6
Pih1D1	DRSC02897	1.54e6	1.56e6	1.15e6	1.25e6
140up	DRSC12634	1.52e6	1.62e6	1.18e6	1.28e6
CG31636	DRSC02276	1.57e6	1.38e6	1.16e6	1.22e6
Mst98Ca	DRSC16749	6.15e5		9.61e5	
Thor	DRSC00770	1.41e6	1.35e6	8.85e5	9.95e5
COX4	DRSC02091	1.14e6	1.16e6	1.13e6	1.22e6
RpS26	DRSC03420	9.81e5 (active)	1.02e6	8.14e5	9.96e5
CG2691	DRSC19866	6.15e5		9.06e5	
Octbeta1R	DRSC16134	1.28e6	1.26e6	8.85e5	9.71e5
CG14739	DRSC14959	1.63e6	1.57e6	1.27e6	1.33e6
Cyp9b2	DRSC07390	1.55e6	1.51e6	1.22e6	1.27e6
CG8173	DRSC20088	1.48e6	1.43e6	1.09e6	1.13e6
NELF-B	DRSC17734	6.09e5		9.62e5	
CG6576	DRSC10663	1.31e6	1.39e6	1.25e6	1.27e6
Golgin84	DRSC15269	1.52e6	1.63e6	1.02e6	1.12e6
Gr10a	DRSC18897	1.48e6	1.70e6	1.12e6	1.26e6
CG10311	DRSC14228	1.22e6	1.26e6	1.12e6	1.29e6
Lamtor1	DRSC10183	1.32e6	1.40e6	1.36e6	1.38e6
Aldh7A1	DRSC11083	1.55e6	1.56e6	1.39e6	1.46e6
elB	DRSC01379	1.43e6	1.49e6	9.42e5	1.11e6
elB	DRSC03527	1.68e6	1.68e6	1.31e6	1.42e6
zye	DRSC11784	1.40e6	1.38e6	1.30e6	1.38e6
lms	DRSC06387	1.60e6	1.40e6	9.91e5	1.24e6
GlcAT-S	DRSC02731	1.27e6	1.34e6	1.12e6	1.21e6
Pkc53E	DRSC05636	5.94e5		8.00e5	
Pkc53E	DRSC07510	1.42e6	1.47e6	1.30e6	1.33e6
CG13005	DRSC19524	1.43e6	1.44e6	1.05e6	1.17e6
srp	DRSC13125	1.40e6	1.66e6	1.07e6	1.15e6
srp	DRSC17068	5.29e5 (active)	5.36e5	6.45e5	7.72e5
CG31735	DRSC01518	1.57e6	1.54e6	9.63e5	1.20e6
Pgk	DRSC00769	1.53e6	1.59e6	1.00e6	1.15e6
SP2353	DRSC07545	1.54e6	1.58e6	1.08e6	1.18e6
Pez	DRSC03397	1.65e6	1.57e6	1.21e6	1.37e6
